Results published in PubChem BioAssay AID720533 (National Center for Advancing Translational Sciences (NCATS), 2013).
“And” between values parts separate entries of the source, which are not always exact repeats. Identical values can stand only once. Among all 18,000 compounds or so, about 750 (4.2%) were called active. The inconclusive results got no clear call from the source; some entries with a clear call stand among them for comparison. Calls come from the whole dose curve; tested in HEK293 cells. Potencies beside an inconclusive call are fits to weak or partial responses and may not hold up. More than one record can exist for a structure, and the calls need not agree. Starred links: 1 amine or outer side, 2 acyl side, 3 side chain; linkers in the order of their positions; H or OH if unused. Positions of bridges follow the written chain, without caps; N, C: chain ends. Non-standard residues stand in square brackets, D forms with d. Residues, ends and D or L forms follow the SMILES beside them. Chains are numbered I, II in the order given. Actinocin(9to1) = Cc1c2oc3c(C)ccc(C(=O)[*:1])c3nc-2c(C(=O)[*:2])c(N)c1=O; NMeV = CN[C@H](C(=O)O)C(C)C; Sar = CNCC(=O)O

Test: qHTS for Inhibitors of binding or entry into cells for Lassa Virus
Settings: Lassa virus pseudotyped entry inhibition, cell-based qHTS; activity change, negative = inhibition: at 49.2 µM (top of the series) unless noted
% is set by controls: 0 for no effect and ±100 for the full control effect; potency is the fitted concentration of half-maximal effect.

SMILES	Potency	activity change, negative = inhibition
CC1O[C@@H](O[C@@H]2C(O)C[C@H](O[C@@H]3C(O)C[C@@H](OC4CC[C@@]5(C)C6CC[C@]7(C)C(C8=CC(=O)OC8)CC[C@@]7(O)C6CC[C@@H]5C4)OC3C)OC2C)CC(O)[C@H]1O (stereo not given in full)	active: 0.282 µM	
O=[N+]([O-])c1ccc(CN2CC(N3CC=CC3)CS2(=O)=O)cc1 (stereo not given)	inactive	
O=C(OCc1cn([C@H]2C[C@H](c3ccc(Cl)cc3)N(CC3CCCCC3)C[C@H]2O)nn1)c1ccccc1	inconclusive: 15.8 µM [inhibitor, partial curve, poor fit]	
CC1CC[C@@]2(OC1)O[C@@H]1[C@@H](O)[C@H]3C4CC[C@H]5C[C@@H](O[C@@H]6O[C@H](CO)[C@H](O[C@@H]7O[C@H](CO)[C@@H](O)[C@H](O[C@@H]8OC[C@@H](O)[C@H](O)[C@H]8O)[C@H]7O[C@@H]7O[C@H](CO)[C@@H](O)[C@H](O[C@@H]8O[C@H](CO)[C@@H](O)[C@H](O)[C@H]8O)[C@H]7O)[C@H](O)[C@H]6O)[C@H](O)C[C@]5(C)C4CC[C@]3(C)[C@H]1[C@@H]2C (stereo not given in full)	active: 14.1 µM	
COC(=O)C1(O)CC2OC1(C)n1c3ccccc3c3c4c(c5c6ccccc6n2c5c31)C(=O)NC4 (stereo not given)	inconclusive: 3.16 µM [inhibitor, partial curve]	
CCCOC(=O)NCCCN(C)C	inactive	
CSc1ccc(C(=O)N2CCc3c(cnc(C)c3CNC(=O)c3cncs3)C2)cc1	inconclusive: 17.8 µM [inhibitor, partial curve]	
C#CCNC(=O)[C@H]1C=C(OC)C(=O)C[C@H]2c3ccccc3C[C@]12C		inactive: 0.941% [at 8.59 µM]
CN(C(=O)COc1nc2ccccc2s1)c1ccccc1	inactive	
C[C@H](Cc1ccccc1)Nc1ncnc2c1ncn2[C@@H]1O[C@H](CO)[C@@H](O)[C@H]1O	inactive	
CO[C@@H]1[C@@H](O[C@@H]2O[C@H](C)[C@@H](O[C@H]3C[C@@](C)(O)[C@@H](O)[C@H](C)O3)[C@H](N(C)C)[C@H]2O)[C@@H](CC=O)C[C@@H](C)[C@@H](O[C@@H]2CC[C@H](N(C)C)[C@@H](C)O2)/C=C/C=C/C[C@@H](C)OC(=O)C[C@H]1OC(C)=O	inconclusive: 25.1 µM [inhibitor, partial curve, poor fit]	
COc1cc(O)c(C(=O)/C=C/c2ccc(O)c(OC)c2)c(OC)c1	inconclusive: 17.8 µM [inhibitor, single point]	
Cc1cccc(CNc2cc(-c3ccccc3CN(C)C)ncn2)c1	inactive	
CN1CCc2cc3c(cc2[C@@H]1O)OCO3	inactive	
CCOC(=O)[C@@H]1CSCCS(=O)(=O)N1C(=O)c1ccc(Br)cc1	inactive	
COC(=O)[C@@H]1CCCN1Cc1ccc2c(c1)CN(Cc1nccs1)CCO2	inactive	
NS(=O)(=O)C#Cc1ccccc1	inconclusive: 35.5 µM [inhibitor, single point]	
CCOC(=O)C1(c2ccccc2)Oc2ccccc2C(c2ccc(OC)cc2)=C1C(=O)OC (stereo not given)	inconclusive: 14.1 µM [inhibitor, partial curve]	
OC[C@H]1O[C@@H](O[C@@H]2OC=C[C@H]3[C@H](O)[C@@H]4O[C@]4(CO)[C@@H]23)[C@H](O)[C@@H](O)[C@@H]1O	inactive	
CC(C)Cc1nc2cc(NS(=O)(=O)N(C)C)cc(C(=O)N3CCOCC3)c2n1C	inactive	
CC(=O)Oc1cc(C)c(OC(C)=O)c2ccccc12	inconclusive: 35.5 µM [inhibitor, partial curve]	
CCOc1ccc(N=Nc2ccc(N)cc2N)cc1	inconclusive: 31.6 µM [inhibitor, single point]	
N=c1ccn2c(n1)OC1C(O)C(CO)OC12 (stereo not given)	inconclusive: 3.55 µM [inhibitor, partial curve] and inconclusive: 2.51 µM [inhibitor, partial curve]	
CCCCC1C(=O)N(c2ccccc2)N(c2ccccc2)C1=O	inconclusive: 31.6 µM [inhibitor, partial curve, poor fit]	
COC(=O)C1=C(C(=O)OC)[C@@H]2N(CC=C(C)C)c3ccccc3[C@@]23CCC(=O)N(Cc2cccc(C(F)(F)F)c2)C3=N1		inactive: 2.4% [at 8.59 µM]
Nc1ncnc2c1c(I)cn2C1OC(CO)C(O)C1O (stereo not given)	inconclusive: 6.31 µM [inhibitor, full curve, poor fit] and inconclusive: 3.16 µM [inhibitor, full curve] and inconclusive: 2.82 µM [inhibitor, full curve]	
CNCCCCOc1ccccc1Cc1ccccc1	inconclusive: 14.1 µM [inhibitor, full curve]	
CCCc1nc2c(C)cc(-c3nc4ccccc4n3C)cc2n1Cc1ccc(-c2ccccc2C(=O)O)cc1	inconclusive: 31.6 µM [inhibitor, partial curve, poor fit]	

SMILES	Potency	activity change, negative = inhibition
Nc1ccccc1N	inconclusive: 15.8 µM [inhibitor, full curve]	
CC1=CC(=O)c2ccccc2C1=O	inconclusive: 12.6 µM [inhibitor, single point] and inconclusive: 35.5 µM [inhibitor, single point]	
CC(C)c1c(C(=O)N(C)Cc2cccc3ncccc23)cnn1-c1nccc(-c2ccccc2F)n1	inconclusive: 28.2 µM [inhibitor, single point]	
CSC[C@H]1CN(c2ccc(Br)cc2)C(=O)[C@H]1CC(=O)Nc1ccccc1		inconclusive: -31.2% [inhibitor]
O[C@H](CCCN1CCN(c2ncc(F)cn2)CC1)c1ccc(F)cc1	inactive	
COC[C@H]1OC(=O)c2coc3c2[C@@]1(C)C1=C(C3=O)C2CCC(=O)[C@@]2(C)C[C@H]1OC(C)=O (stereo not given in full)	inconclusive: 10 µM [inhibitor, partial curve]	
CCN(CC)CCOc1ccc(-c2nc3cc(Cl)ccc3s2)cc1	inconclusive: 31.6 µM [inhibitor, single point]	
CCCCN(CC)CCOc1cccc2ccccc12	inconclusive: 25.1 µM [inhibitor, partial curve]	
CCCCC1(C2CCCC2)Cc2cc(OCCCC(=O)O)c(Cl)c(Cl)c2C1=O (stereo not given)	inconclusive: 35.5 µM [inhibitor, single point]	
CCOC(=O)C1=C(c2ccccc2)c2ccc(OC)cc2N(S(=O)(=O)C(F)(F)F)C1C(=O)OCC (stereo not given)	inconclusive: 10 µM [inhibitor, partial curve]	
Cc1c2oc3c(C)ccc(C(=O)N[C@@H]4C(=O)N[C@H](C(C)C)C(=O)N5CCC[C@H]5C(=O)N(C)CC(=O)N(C)[C@@H](C(C)C)C(=O)O[C@@H]4C)c3nc-2c(C(=O)N[C@@H]2C(=O)N[C@H](C(C)C)C(=O)N3CCC[C@H]3C(=O)N(C)CC(=O)N(C)[C@@H](C(C)C)C(=O)O[C@@H]2C)c(N)c1=O (I: T[dV]P[Sar][NMeV] / II: T[dV]P[Sar][NMeV]; ester I:1-I:C, II:1-II:C; linker I:N-II:N via Actinocin(9to1))	inconclusive: 3.55 µM [inhibitor, full curve] and inconclusive: 2 µM [inhibitor, full curve]	
CN(C(=O)Cc1ccc(Cl)c(Cl)c1)[C@H](CN1CCCC1)c1cccc(N=C=S)c1	inconclusive: 15.8 µM [inhibitor, partial curve, poor fit]	
COc1ccc2cc3[n+](cc2c1OC)CCc1cc2c(cc1-3)OCO2	inactive and active: 25.1 µM and active: 11.2 µM	
CC[C@@H]1Cc2cc(O)ccc2C2=C1c1ccc(O)cc1C[C@H]2CC	active: 20 µM	
Cc1ccc2c(c1)[C@]13CCCC[C@@H]1[C@H](C2)N(C)CC3	inconclusive: 14.1 µM [inhibitor, partial curve]	
C[C@@]12CC[C@H](O)C[C@@H]1CC[C@H]1[C@H]2CC[C@@]2(C)[C@@H](C3=CC(=O)OC3)CC[C@]12O	active: 0.891 µM	
OCC(S)CS (stereo not given)	inconclusive: 39.8 µM [inhibitor, single point]	
Cc1ccc(S(=O)(=O)N2CCC(=O)N([C@H](COCc3cccc(C)c3)Cc3ccccc3)CC2)cc1	inconclusive: 10 µM [inhibitor, partial curve]	
Cn1sc(=O)n(Cc2ccccc2)c1=O	inconclusive: 17.8 µM [inhibitor, partial curve]	
COC(=O)c1ccc(CN2CCOc3ccc(C(O)c4cccnc4)cc3C2)cc1 (stereo not given)	inactive	
COc1cc(C(C)C)c2c(c1)S(=O)(=O)N(COc1cc(=O)n3cccc(OCCN4CCCCC4)c3n1)C2=O	inconclusive: 35.5 µM [inhibitor, single point]	
C=CCN1[C@@H](CC(C)C)COc2c(Cl)cccc2S1(=O)=O	inactive	
Cc1noc(C)c1-c1nc(N2CCNCC2)c2ccccc2n1	inactive	
COc1ccc(-c2nc3c(c4c2C[C@H](c2ccccc2)OC4)CN(C(=O)NCc2ccco2)CC3)c(C)c1		inconclusive: -14.5% [inhibitor] [at 8.59 µM]
O=C(OCCN1CCCCC1)c1c[nH]c2ccccc12	inconclusive: 35.5 µM [inhibitor, single point]	
Cc1ccc(S(=O)(=O)/C=C/C#N)cc1	active: 14.1 µM and active: 7.08 µM	
CC[C@@H]1O[C@]2(C=C[C@@H]1C)C[C@H]1C[C@H](CC=C(C)[C@@H](O[C@@H]3C[C@H](OC)[C@H](O[C@@H]4C[C@H](OC)[C@H](O)[C@H](C)O4)[C@H](C)O3)[C@@H](C)C=CC=C3CO[C@@H]4[C@@H](O)C(C)=C[C@@H](C(=O)O1)[C@]34O)O2	inconclusive: 14.1 µM [inhibitor, single point]	
